PubChem BioAssay AID1259405 – NCATS, 2018

Test: 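Silenced genes that increase secreted GFP made by CHO cells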 (primary screen)
Cell system: Chinese hamster CHO-K1 ovary cells with stable secreted eGFP expression
Reagent: single siRNA against mouse genes, 0.8 pmol siRNA per well (2 µl of 400 nM stock)
Duration: 3 days
Detection: 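Percent of the per-plate non-targeting control median for intracellular GFP per well by laser scanning cytometry and for cell viability by ATP luminescence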
Scale: GFP, % of control: higher = more GFP per well, higher productivity; viability (ATP), % of control: higher = more viable cells (more ATP)
Call rule: 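Called active when intracellular GFP, relative to negative control, is at or above 120%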
Here is one part, drawn at random, of about 50,000 reagents. Of all reagents, about 4,000 (8%) were called active. 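Mouse siRNA library applied to hamster cells; one well for each siRNA.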 The numbers tell different reagents against one gene apart. No sequences are given here.

Casp8 #1 — GFP, % of control = 83.8; viability (ATP), % of control = 85.6; activity call = inactive
Casp8 #2 — GFP, % of control = 109; viability (ATP), % of control = 87.6; activity call = inactive
Casp8 #3 — GFP, % of control = 80.7; viability (ATP), % of control = 73.9; activity call = inactive
Sppl2a #1 — GFP, % of control = 21.7; viability (ATP), % of control = 38.3; activity call = inactive
Sppl2a #2 — GFP, % of control = 91.2; viability (ATP), % of control = 84.1; activity call = inactive
Sppl2a #3 — GFP, % of control = 49.6; viability (ATP), % of control = 69.4; activity call = inactive
Neurog1 #1 — GFP, % of control = 77.6; viability (ATP), % of control = 100; activity call = inactive
Neurog1 #2 — GFP, % of control = 99.6; viability (ATP), % of control = 91.1; activity call = inactive
Neurog1 #3 — GFP, % of control = 110; viability (ATP), % of control = 103; activity call = inactive
Yrdc #1 — GFP, % of control = 62.2; viability (ATP), % of control = 61.9; activity call = inactive
Yrdc #2 — GFP, % of control = 49.3; viability (ATP), % of control = 64.1; activity call = inactive
Yrdc #3 — GFP, % of control = 112; viability (ATP), % of control = 126; activity call = inactive
Pmepa1 #1 — GFP, % of control = 125; viability (ATP), % of control = 47.1; activity call = active
Pmepa1 #2 — GFP, % of control = 96.4; viability (ATP), % of control = 115; activity call = inactive
Pmepa1 #3 — GFP, % of control = 163; viability (ATP), % of control = 144; activity call = active
Zbtb8a #1 — GFP, % of control = 96.1; viability (ATP), % of control = 53.8; activity call = inactive
Zbtb8a #2 — GFP, % of control = 64.7; viability (ATP), % of control = 72.7; activity call = inactive
Zbtb8a #3 — GFP, % of control = 62.4; viability (ATP), % of control = 58.3; activity call = inactive
Ifitm1 #1 — GFP, % of control = 60; viability (ATP), % of control = 66.6; activity call = inactive
Ifitm1 #2 — GFP, % of control = 61.6; viability (ATP), % of control = 78.3; activity call = inactive
Ifitm1 #3 — GFP, % of control = 64.7; viability (ATP), % of control = 28.8; activity call = inactive
Otoa #1 — GFP, % of control = 63.3; viability (ATP), % of control = 77.7; activity call = inactive
Otoa #2 — GFP, % of control = 96.6; viability (ATP), % of control = 79.7; activity call = inactive
Otoa #3 — GFP, % of control = 84.4; viability (ATP), % of control = 86.3; activity call = inactive
Gch1 #1 — GFP, % of control = 89.9; viability (ATP), % of control = 73.1; activity call = inactive
Gch1 #2 — GFP, % of control = 108; viability (ATP), % of control = 101; activity call = inactive
Gch1 #3 — GFP, % of control = 45.4; viability (ATP), % of control = 55.4; activity call = inactive
Nr4a1 #1 — GFP, % of control = 89.3; viability (ATP), % of control = 69.7; activity call = inactive
Nr4a1 #2 — GFP, % of control = 59.2; viability (ATP), % of control = 69.7; activity call = inactive
Nr4a1 #3 — GFP, % of control = 69.5; viability (ATP), % of control = 73.7; activity call = inactive
Nfat5 #1 — GFP, % of control = 114; viability (ATP), % of control = 116; activity call = inactive
Nfat5 #2 — GFP, % of control = 114; viability (ATP), % of control = 95; activity call = inactive
Nfat5 #3 — GFP, % of control = 95.4; viability (ATP), % of control = 118; activity call = inactive
Or52s1 #1 — GFP, % of control = 123; viability (ATP), % of control = 60.5; activity call = active
Or52s1 #2 — GFP, % of control = 71.1; viability (ATP), % of control = 70.2; activity call = inactive
Or52s1 #3 — GFP, % of control = 31.7; viability (ATP), % of control = 81.6; activity call = inactive
Or6b2 #1 — GFP, % of control = 115; viability (ATP), % of control = 98.1; activity call = inactive
Or6b2 #2 — GFP, % of control = 80.2; viability (ATP), % of control = 61.3; activity call = inactive
Or6b2 #3 — GFP, % of control = 77.4; viability (ATP), % of control = 109; activity call = inactive
Clec7a #1 — GFP, % of control = 98.1; viability (ATP), % of control = 83; activity call = inactive
Clec7a #2 — GFP, % of control = 116; viability (ATP), % of control = 90.5; activity call = inactive
Clec7a #3 — GFP, % of control = 98.8; viability (ATP), % of control = 92.9; activity call = inactive
